The results in this text go back to patent US20180194850A1 (GENERAL HOSPITAL, published 2018).

Holding throughout (test): linear peptide ELISA
The target of one assay is T1, S03931.
T1 sequence (peptide): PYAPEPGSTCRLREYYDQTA

The target in a further assay is T2, S04062.
T2 sequence (peptide): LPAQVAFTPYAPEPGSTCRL

Another assay has as its target T3, S04063.
T3 sequence (peptide): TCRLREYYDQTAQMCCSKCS

The next assay deals with T4, S04064.
T4 sequence (peptide): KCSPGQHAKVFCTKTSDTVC

Another assay has as its target T5, S04065.
T5 sequence (peptide): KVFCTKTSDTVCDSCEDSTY

The target of another assay is T6, S04066.
T6 sequence (peptide): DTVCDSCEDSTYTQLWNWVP

The target of a further assay is T7, S04067.
T7 sequence (peptide): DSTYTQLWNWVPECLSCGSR

A further assay addresses T8, S04068.
T8 sequence (peptide): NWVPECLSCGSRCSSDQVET

In the next assay the target is T9, S04069.
T9 sequence (peptide): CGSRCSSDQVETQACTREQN

The next assay addresses T10, S04070.
T10 sequence (peptide): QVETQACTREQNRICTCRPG

A further assay concerns the target T11, S04075.
T11 sequence (peptide): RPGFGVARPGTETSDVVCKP

The target in another assay is T12, S04076.
T12 sequence (peptide): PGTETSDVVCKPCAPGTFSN

The next assay concerns the target T13, S04077.
T13 sequence (peptide): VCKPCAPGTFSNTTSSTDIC

The target in a further assay is T14, S04078.
T14 sequence (peptide): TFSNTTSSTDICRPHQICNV

The next assay has as its target T15, S04079.
T15 sequence (peptide): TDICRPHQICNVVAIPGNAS

In another assay the target is T16, S04080.
T16 sequence (peptide): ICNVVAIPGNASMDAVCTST

Another assay concerns the target T17, S04081.
T17 sequence (peptide): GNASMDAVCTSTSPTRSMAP

Assay [1] concerns the target epitope containing amino acids 112-139 of SEQ ID NO: 7 within human TNFR2 (human).
Assay [2] has as its target epitope containing amino acids 128-155 of SEQ ID NO: 7 within human TNFR2 (human).

These are yes or no findings as the source states them, for the method shown. Some entries that bind do so weakly or less than the wild type. Tags and fused reporters may be left off the sequences shown.

B1: antagonistic TNFR2 antibody TNFRAB1 (antibody, V domains shown)
VH: EVQLQESGGGLVKPGGSLKLSCAASGFTFSSYVMSWVRQTPEKRLEWVATISSGGSYTYYPDSVKGRFTISRDNAKNTLYLQMSSLRSEDTAMYYCARQRVDGYSSYWYFDVWGAGTAVTVSS
VL: DIVLTQSPAIMSASPGEKVTITCSASSSVYYMYWFQQKPGTSPKLWIYSTSNLASGVPVRFSGSGSGTSYSLTISRMEAEDAATYYCQQRRNYPYTFGGGTKLEIKR
notes: Murine monoclonal IgG; For SPR the antibody was biotinylated and captured on streptavidin; also called TNFR2 antagonist 1
Consider B1, for which the binding result in the assay with S03931, with S04062, with S04063, in the assay with S04064, in the assay with S04065 and in the assay with S04066 was “no binding (tested: 0.1 µg/well)” throughout. Moreover, the binding entry in the assay with S04067, with S04068, with S04069, in the assay with S04070, with S04075 and with S04076 was “no binding (tested: 0.1 µg/well)” each time. The binding result with S04077 is given as “no binding (tested: 0.1 µg/well)”; in the assay with S04078, “no binding (tested: 0.1 µg/well)”; in the assay with S04079 it was “no binding (tested: 0.1 µg/well)”; with S04080 it was “no binding (tested: 0.1 µg/well)”; in the assay with S04081, “no binding (tested: 0.1 µg/well)”; in assay [1], “binds”. Further, the binding entry in [2] was “binds”.
